Results published in patent US20060199228A1 (KING S COLLEGE LONDON, published 2006).
These are yes or no findings as the source states them, for the method shown. A result given as binding can be weak or reduced; the word gives no strength.

B1: preproinsulin peptide C4-C27 (peptide)
peptide: DLQVGQVELGGGPGAGSLQPLALE
B2: preproinsulin peptide C19-A3 (peptide)
peptide: GSLQPLALEGSLQKRGIV
notes: Synthetic peptide; also called PI C19-A3; Proinsulin C19-A3
B3: preproinsulin peptide C22-A5 (peptide)
peptide: QPLALEGSLQKRGIVEQ
notes: Synthetic peptide
B4: preproinsulin peptide C13-C32 (peptide)
peptide: GGGPGAGSLQPLALEGSLQK
notes: Synthetic peptide; also called C13-32

The binders below were run against HLA-DR4 immunoaffinity-purified from Priess EBV-transformed B cells (DRB1*0401) (assay: acid elution from HLA-DR4 of preproinsulin-pulsed Priess cells, MALDI-TOF MS).

binding, binds:
B1
B2
B3
B4

These binders were tested against HLA-DR4 immunoaffinity-purified from Priess EBV-transformed B cells (DRB1*0401) (assay: competition binding assay, DELFIA).

binding, binds:
B2
B3
B4
